In publication PMC5009372:
No constants are given. Whether binding was seen depends on the method and setting. For part of these data: In cells and extracts the contact can be indirect. Some results given as binding are weak or reduced against the parent protein; the word gives no strength. Each block holds one binder with its values, some of them ahead of it.

Key:
[1] = target: T1, YL1 (YELLOW LEAF 1), full-length, in pGBKT7 (rice (Oryza sativa)) (UniProt Q0E3V2); assay: two-hybrid; Matchmaker Gold system (Clontech); YL1 in pGBKT7 (bait), subunits in pGADT7 (prey); S. cerevisiae AH109; growth on SD/-Ade/-His/-Leu/-Trp medium containing X-α-gal
T1 sequence: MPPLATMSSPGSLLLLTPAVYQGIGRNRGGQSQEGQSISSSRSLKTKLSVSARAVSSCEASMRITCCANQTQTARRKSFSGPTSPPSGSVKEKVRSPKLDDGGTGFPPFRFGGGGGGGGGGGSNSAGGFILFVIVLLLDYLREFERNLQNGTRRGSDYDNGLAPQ

[2] = target: T2, YL1-C (CDS 286-495), in pSCYNE (BiFC) (rice (Oryza sativa)) (UniProt Q0E3V2); assay: split reporter; BiFC with split CFP; YL1 constructs in pSCYNE, AtpB in pSCYCE(R); cotransformed into rice protoplasts; confocal microscopy
T2 sequence: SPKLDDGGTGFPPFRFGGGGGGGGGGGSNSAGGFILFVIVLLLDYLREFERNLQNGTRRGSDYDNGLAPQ

[3] = target: T3, YL1, full-length, in pSCYNE (BiFC) (rice (Oryza sativa)) (UniProt Q0E3V2); assay: as above
T3 sequence: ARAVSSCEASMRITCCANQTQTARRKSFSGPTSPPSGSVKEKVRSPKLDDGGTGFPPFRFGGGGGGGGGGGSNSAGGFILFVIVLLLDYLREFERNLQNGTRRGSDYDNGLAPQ

binding [1]: binds
B1: AtpB (β subunit of chloroplast ATP synthase), in pGADT7 (protein, UniProt P12085 1-498)
chain: MRTNPTTSRPGVSTIEEKSTGRIDQIIGPVLDVTFPPGKLPYIYNALVVKSRDTDGKQINVTCEVQQLLGNNRVRAVAMSATDGLMRGMEVIDTGAPLSVPVGGATLGRIFNVLGEPVDNLGPVDTSATFPIHRSAPAFIELDTKLSIFETGIKVVDLLAPYRRGGKIGLFGGAGVGKTVLIMELINNIAKAHGGVSVFGGVGERTREGNDLYMEMKESGVINEKNLEESKVALVYGQMNEPPGARMRVGLTALTMAEYFRDVNKQDVLLFIDNIFRFVQAGSEVSALLGRMPSAVGYQPTLSTEMGSLQERITSTKKGSITSIQAVYVPADDLTDPAPATTFAHLDATTVLSRGLASKGIYPAVDPLDSTSTMLQPRIVGNEHYETAQRVKQTLQRYKELQDIIAILGLDELSEEDRLTVARARKIERFLSQPFFVAEVFTGSPGKYVGLAETIRGFQLILSGELDGLPEQAFYLVGNIDEASTKAINLEEENKLKK

binding [2]: no binding
binding [3]: binds
B2: AtpB, in pSCYCE(R) (BiFC) (protein, UniProt P12085 1-498)
chain: B1 chain
